Assay results published in patent US12604895B2, “Pesticidally active cyclic amine compounds” (SYNGENTA CROP PROTECTION AG, priority 2020, dated 2026).
Some results were stated once for a whole list of compounds, not compound by compound.

How the values were obtained:
Assay type in all cases: in vivo
[1] = tested on: Myzus persicae (Green Peach Aphid); assay: Example B4: Myzus persicae (Green Peach Aphid), intrinsic activity; conditions: test rate of 12 ppm; in sucrose solution; 5 days after infestation
[2] = tested on: Tetranychus urticae (Two-Spotted Spider Mite); assay: Example B5: Tetranychus urticae (Two-Spotted Spider Mite), feeding/contact activity; conditions: application rate of 200 ppm; mixed population (mobile stages) on sprayed bean leaf discs; 8 days after infestation
Experimental: Example B5: Tetranychus urticae (Two-Spotted Spider Mite): Feeding/Contact Activity
Bean leaf discs on agar in 24-well microtiter plates were sprayed with aqueous test solutions prepared from 10′000 ppm DMSO stock solutions. After drying the leaf discs were infested with a mite population of mixed ages. The samples were assessed for mortality on mixed population (mobile stages) 8 days after infestation.

[3] = tested on: Diabrotica balteata (Corn Root Worm); assay: Example B1: Diabrotica balteata (Corn Root Worm), sprayed maize sprouts; conditions: application rate of 200 ppm; L2 larvae on sprayed maize sprouts; 4 days after infestation
Experimental: Example B1: Diabrotica balteata (Corn Root Worm)
Maize sprouts placed onto an agar layer in 24-well microtiter plates were treated with aqueous test solutions prepared from 10′000 ppm DMSO stock solutions by spraying. After drying, the plates were infested with L2 larvae (6 to 10 per well). The samples were assessed for mortality and growth inhibition in comparison to untreated samples 4 days after infestation.
The following compounds gave an effect of at least 80% control in at least one of the two categories (mortality or growth inhibition) at an application rate of 200 ppm: P1.2, P2.1, P2.2, P2.5, P2-17, P3.4, P7.1, P8.1

[4] = tested on: Plutella xylostella (Diamond Back Moth); assay: Example B3: Plutella xylostella (Diamond Back Moth), artificial diet; conditions: application rate of 200 ppm; eggs, treated artificial diet; 8 days after infestation
Experimental: Example B3: Plutella xylostella (Diamond Back Moth)
24-well microtiter plates with artificial diet were treated with aqueous test solutions prepared from 10′000 ppm DMSO stock solutions by pipetting. After drying, Plutella eggs were pipetted through a plastic stencil onto a gel blotting paper and the plate was closed with it. The samples were assessed for mortality and growth inhibition in comparison to untreated samples 8 days after infestation. The following compounds gave an effect of at least 80% control in at least one of the two categories (mortality or growth inhibition) at an application rate of 200 ppm: P1.2, P1.15, P1.51, P2.1, P2.2, P2.5, P2.10, P2.15, P2.16, P5.1, P5.2, P5.3, P7.1, P8.1

SMILES	mortality [1]	mortality [2]	control in at least one of the two categories (mortality or growth inhibition) [3]	control in at least one of the two categories (mortality or growth inhibition) [4]
Cc1cc(-c2ccc(C(F)(F)F)cc2)c(C#N)cc1C(=O)N1CCC(CS(C)(=O)=O)CC1 [Compound P1.26]	at least 80%	at least 80%		
Cc1cc(-c2ccc(C(F)(F)F)cc2)c(C#N)cc1C(=O)N1CCN(c2ncc(Cl)cc2Cl)CC1 [Compound P2.2]		at least 80%	at least 80%	at least 80%
CC(C)(C)OC(=O)N1CCN(C(=O)c2cc(C#N)c(-c3ccc(C(F)(F)F)cc3)cc2C(F)(F)F)CC1 [Compound P2.15]				at least 80%
Cc1c(C(=O)N2CCN(c3ncc(Cl)cc3Cl)CC2)cc(C#N)c(-c2ccc(C(F)(F)F)cc2)c1C#N [Compound P7.1]		at least 80%	at least 80%	at least 80%
COCCN1CCN(C(=O)c2cc(C#N)c(-c3ccc(C(F)(F)F)cc3)cc2C(F)(F)F)CC1 [Compound P2.17]		at least 80%	at least 80%	
N#Cc1cc(C(=O)N2CCC(O)(c3ccc(Cl)cc3)CC2)c(C(F)(F)F)cc1-c1ccc(C(F)(F)F)cc1 [Compound P5.2]		at least 80%		at least 80%
N#Cc1cc(C(=O)N2CCN(CC=C(Cl)Cl)CC2)c(C(F)(F)F)cc1-c1ccc(C(F)(F)F)cc1 [Compound P2.10]		at least 80%		at least 80%
C=CCSCC1CCN(C(=O)c2cc(C#N)c(-c3ccc(C(F)(F)F)cc3)cc2C(F)(F)F)CC1 [Compound P1.15]		at least 80%		at least 80%
CCS(=O)(=O)CC1CCN(C(=O)c2cc(C#N)c(-c3ccc(C(F)(F)F)cc3)cc2C(F)(F)F)CC1 [Compound P1.4]	at least 80%	at least 80%		
CCSCC1CCN(C(=O)c2cc(C#N)c(-c3ccc(C(F)(F)F)cc3)cc2C(F)(F)F)CC1 [Compound P1.2]		at least 80%	at least 80%	at least 80%
CCSCC1CN(C(=O)c2cc(C#N)c(-c3ccc(C(F)(F)F)cc3)cc2C(F)(F)F)C1 [Compound P3.4]		at least 80%	at least 80%	
CC[S+]([O-])CC1CCN(C(=O)c2cc(C#N)c(-c3ccc(C(F)(F)F)cc3)cc2C(F)(F)F)CC1 (stereo not shown) [Compound P1.3]	at least 80%	at least 80%		
CCC[S+]([O-])CC1CCN(C(=O)c2cc(C#N)c(-c3ccc(C(F)(F)F)cc3)cc2C(F)(F)F)CC1 (stereo not shown) [Compound P1.22]	at least 80%	at least 80%		
